Among the targets are SPIB (UniProt Q01892); ETV5 (UniProt P41161); ELF4 (UniProt Q99607).
Assay in all cases: DAPPL (digital affinity profiling via proximity ligation, sequencing)
Holding throughout (conditions): 10 mM Tris-HCl pH 7.5, 50 mM NaCl, 1 mM DTT, 4% glycerol, room temperature, 30 min; GST-TFs on glutathione beads, 16-mer random dsDNA library, 0.1% …; high values mean tight binding; double strand, one strand shown; scale: fold enrichment (6-mer frequency, TF over GST control)

Amino acid sequences for entries named in this document (tags omitted). A change or cut given only in a name is not applied to a line headed by its entry.
UniProt Q01892: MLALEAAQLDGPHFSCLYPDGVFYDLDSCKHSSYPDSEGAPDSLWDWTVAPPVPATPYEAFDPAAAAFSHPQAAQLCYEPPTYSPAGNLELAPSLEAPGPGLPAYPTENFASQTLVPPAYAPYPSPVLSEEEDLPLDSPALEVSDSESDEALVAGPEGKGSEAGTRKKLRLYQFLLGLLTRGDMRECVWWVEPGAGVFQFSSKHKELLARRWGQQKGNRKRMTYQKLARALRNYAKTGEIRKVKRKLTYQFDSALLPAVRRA
UniProt P41161: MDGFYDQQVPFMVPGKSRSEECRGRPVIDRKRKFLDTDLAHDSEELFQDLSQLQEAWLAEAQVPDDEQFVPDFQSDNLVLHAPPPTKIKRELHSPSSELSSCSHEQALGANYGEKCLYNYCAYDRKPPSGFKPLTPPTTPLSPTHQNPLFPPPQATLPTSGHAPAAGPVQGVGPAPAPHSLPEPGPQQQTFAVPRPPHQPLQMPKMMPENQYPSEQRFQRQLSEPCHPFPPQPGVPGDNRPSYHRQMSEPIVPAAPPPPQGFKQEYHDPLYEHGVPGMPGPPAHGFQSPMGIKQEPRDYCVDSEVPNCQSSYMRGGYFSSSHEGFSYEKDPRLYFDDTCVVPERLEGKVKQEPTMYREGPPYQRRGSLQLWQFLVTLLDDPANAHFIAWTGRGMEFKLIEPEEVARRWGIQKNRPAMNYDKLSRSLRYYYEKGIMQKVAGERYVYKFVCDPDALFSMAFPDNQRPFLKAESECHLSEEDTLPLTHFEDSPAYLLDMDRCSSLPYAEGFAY
UniProt Q99607: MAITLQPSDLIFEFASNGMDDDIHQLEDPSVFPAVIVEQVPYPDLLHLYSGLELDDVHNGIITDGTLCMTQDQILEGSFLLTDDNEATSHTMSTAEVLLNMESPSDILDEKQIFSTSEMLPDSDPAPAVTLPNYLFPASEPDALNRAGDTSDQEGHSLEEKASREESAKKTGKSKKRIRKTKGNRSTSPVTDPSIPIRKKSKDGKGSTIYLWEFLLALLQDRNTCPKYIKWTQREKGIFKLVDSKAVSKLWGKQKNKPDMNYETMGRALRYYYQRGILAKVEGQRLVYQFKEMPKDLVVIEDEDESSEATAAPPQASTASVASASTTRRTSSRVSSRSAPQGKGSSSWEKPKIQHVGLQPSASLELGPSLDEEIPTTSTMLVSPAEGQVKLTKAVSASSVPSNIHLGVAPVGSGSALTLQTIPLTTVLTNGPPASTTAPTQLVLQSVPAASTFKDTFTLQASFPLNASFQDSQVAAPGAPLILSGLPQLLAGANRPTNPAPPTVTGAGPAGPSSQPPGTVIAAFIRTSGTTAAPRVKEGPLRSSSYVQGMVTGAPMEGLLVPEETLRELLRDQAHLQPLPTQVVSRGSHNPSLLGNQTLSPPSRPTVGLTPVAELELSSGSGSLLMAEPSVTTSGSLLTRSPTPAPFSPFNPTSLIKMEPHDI

The next assay addresses T1, FLI1 (UniProt Q01543).
T1 sequence: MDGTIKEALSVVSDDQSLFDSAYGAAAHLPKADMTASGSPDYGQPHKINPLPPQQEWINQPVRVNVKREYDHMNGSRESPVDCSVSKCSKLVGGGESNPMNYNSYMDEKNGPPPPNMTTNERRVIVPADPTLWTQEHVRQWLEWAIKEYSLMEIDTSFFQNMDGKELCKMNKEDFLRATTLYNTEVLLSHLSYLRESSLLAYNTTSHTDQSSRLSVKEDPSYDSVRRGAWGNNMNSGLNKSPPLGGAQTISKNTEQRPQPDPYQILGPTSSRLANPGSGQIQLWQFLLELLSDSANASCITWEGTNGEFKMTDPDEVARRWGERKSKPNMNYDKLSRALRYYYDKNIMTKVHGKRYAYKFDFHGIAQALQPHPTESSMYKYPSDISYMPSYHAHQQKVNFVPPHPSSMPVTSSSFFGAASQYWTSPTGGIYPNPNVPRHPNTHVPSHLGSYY

A further assay has as its target T2, EHF (UniProt Q9NZC4).
T2 sequence: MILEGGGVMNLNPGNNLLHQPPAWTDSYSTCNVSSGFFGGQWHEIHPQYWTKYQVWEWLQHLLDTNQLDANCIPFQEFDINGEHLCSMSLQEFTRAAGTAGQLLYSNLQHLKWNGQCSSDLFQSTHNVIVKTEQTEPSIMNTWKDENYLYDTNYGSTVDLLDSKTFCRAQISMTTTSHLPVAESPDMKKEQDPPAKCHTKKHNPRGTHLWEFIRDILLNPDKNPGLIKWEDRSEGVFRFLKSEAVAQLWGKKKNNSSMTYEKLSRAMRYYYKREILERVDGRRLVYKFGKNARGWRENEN

A further assay has as its target T3, ETV2 (UniProt O00321).
T3 sequence: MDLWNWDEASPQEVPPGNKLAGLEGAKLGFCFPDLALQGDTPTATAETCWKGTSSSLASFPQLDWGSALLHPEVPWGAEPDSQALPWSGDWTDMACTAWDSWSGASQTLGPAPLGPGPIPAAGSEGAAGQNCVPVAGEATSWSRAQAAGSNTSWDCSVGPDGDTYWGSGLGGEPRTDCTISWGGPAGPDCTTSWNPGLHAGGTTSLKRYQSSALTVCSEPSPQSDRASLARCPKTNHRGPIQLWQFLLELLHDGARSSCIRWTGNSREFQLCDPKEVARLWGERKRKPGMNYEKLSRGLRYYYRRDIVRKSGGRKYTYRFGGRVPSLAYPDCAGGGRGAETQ

Another assay deals with T4, ETV3L (UniProt Q6ZN32).
T4 sequence: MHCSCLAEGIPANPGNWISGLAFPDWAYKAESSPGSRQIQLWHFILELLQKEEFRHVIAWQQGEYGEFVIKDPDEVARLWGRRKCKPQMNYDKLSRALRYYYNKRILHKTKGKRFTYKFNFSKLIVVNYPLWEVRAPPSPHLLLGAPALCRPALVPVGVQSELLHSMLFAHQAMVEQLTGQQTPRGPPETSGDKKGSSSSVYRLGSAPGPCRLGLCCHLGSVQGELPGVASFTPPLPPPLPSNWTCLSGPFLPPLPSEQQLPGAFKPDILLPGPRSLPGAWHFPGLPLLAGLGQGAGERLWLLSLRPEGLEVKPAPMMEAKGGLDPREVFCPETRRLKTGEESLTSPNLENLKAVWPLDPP

This is a selection; strong and weak results do not stand in their true shares. At the low end of the ranking, values are background and their order means little.

For GGGGGG, the binding signal is 0.592 in the assay with FLI1; 0.551 in the assay with EHF; 0.615 with SPIB; 0.581 with ETV5; 0.546 with ELF4; 0.571 with ETV2. The sequence further gave a binding signal with ETV3L of 0.698.
Take AGACAA: the binding signal with FLI1 worked out at 0.749; with EHF it was 0.796; with SPIB, 0.746; with ETV5, 0.767; with ELF4, 0.817; in the assay with ETV2, 0.828. The sequence further gave a binding signal with ETV3L of 0.747.
ACGGGC: the binding signal with FLI1 is 0.801; in the assay with EHF, 0.767; in the assay with SPIB it was 0.811; with ETV5, 0.84; with ELF4, 0.859; in the assay with ETV2, 0.839. In addition, the binding signal in the assay with ETV3L was found to be 0.867.
Consider GAGTTG, for which the binding signal with FLI1 is 0.511; with EHF it was 0.454; with SPIB, 0.533; in the assay with ETV5, 0.492; with ELF4, 0.539; in the assay with ETV2 it was 0.517. Besides, the binding signal with ETV3L was 0.525.
As for CGTGAA, the binding signal was 0.436 with FLI1; 0.489 with EHF; 0.474 with SPIB; 0.461 with ETV5; 0.44 with ELF4; 0.454 with ETV2. In addition, the binding signal with ETV3L was 0.454.
For the sequence ATAGAG, the binding signal worked out at 0.874 in the assay with FLI1; 0.934 with EHF; 0.828 in the assay with SPIB; 0.863 with ETV5; 0.813 with ELF4; 0.791 with ETV2. In the assay with ETV3L, this sequence gave a binding signal of 0.94.
For AGAAAG, the binding signal in the assay with FLI1 was found to be 0.872; with EHF it was 0.849; with SPIB, 0.846; in the assay with ETV5 it was 0.853; with ELF4 it was 0.849; in the assay with ETV2 it was 0.862. The sequence further displayed a binding signal with ETV3L of 0.832.
Turning to GTACGG, the binding signal turned out to be 0.793 with FLI1; 0.869 in the assay with EHF; 0.864 with SPIB; 0.896 in the assay with ETV5; 0.79 with ELF4; 0.946 with ETV2. The sequence also had a binding signal with ETV3L of 0.837.
For the sequence CGTGAT, the binding signal with FLI1 stood at 0.456; with EHF, 0.478; in the assay with SPIB, 0.429; with ETV5 it was 0.47; with ELF4, 0.465; with ETV2, 0.41. Further, the binding signal with ETV3L stood at 0.504.
For GCGCAG, the binding signal is 0.859 with FLI1; 0.848 with EHF; 0.862 with SPIB; 0.826 in the assay with ETV5; 0.836 with ELF4; 0.77 with ETV2. In the assay with ETV3L, this sequence showed a binding signal of 0.806.
GGGCAA: the binding signal with FLI1 worked out at 0.863; with EHF, 0.869; with SPIB, 0.819; with ETV5 it was 0.902; in the assay with ELF4, 0.887; with ETV2, 0.831. In the assay with ETV3L, this sequence showed a binding signal of 0.908.
With GTCATC, the binding signal with FLI1 was 0.862; in the assay with EHF it was 0.87; in the assay with SPIB, 0.94; in the assay with ETV5 it was 0.832; with ELF4, 0.836; with ETV2, 0.8. In the assay with ETV3L, this sequence returned a binding signal of 0.846.
CGTGCC: the binding signal was found to be 0.814 with FLI1; 0.786 with EHF; 0.885 with SPIB; 0.883 with ETV5; 0.807 in the assay with ELF4; 0.914 with ETV2. This sequence gave a binding signal with ETV3L of 0.821.
Turning to GTACCG, the binding signal with FLI1 is 0.78; in the assay with EHF, 0.699; with SPIB, 0.73; with ETV5, 0.748; with ELF4 it was 0.737; in the assay with ETV2 it was 0.71. In the assay with ETV3L, the binding signal worked out at 0.766.
In the case of GGTGCA, the binding signal was 0.848 in the assay with FLI1; 0.858 in the assay with EHF; 0.976 in the assay with SPIB; 0.903 in the assay with ETV5; 0.94 in the assay with ELF4; 0.831 with ETV2. Also, the binding signal with ETV3L amounted to 0.861.
Consider GCTGTG, for which the binding signal was 0.763 in the assay with FLI1; 0.693 with EHF; 0.71 in the assay with SPIB; 0.715 with ETV5; 0.699 in the assay with ELF4; 0.748 with ETV2. The sequence further gave a binding signal in the assay with ETV3L of 0.61.
Take GTCCGA: the binding signal with FLI1 was determined as 0.84; with EHF it was 0.847; in the assay with SPIB, 0.904; in the assay with ETV5 it was 0.826; with ELF4 it was 0.84; with ETV2, 0.789. The sequence also displayed a binding signal in the assay with ETV3L of 0.851.
For AGGGTG, the binding signal with FLI1 was 0.768; with EHF, 0.774; with SPIB it was 0.809; in the assay with ETV5, 0.829; with ELF4 it was 0.76; in the assay with ETV2 it was 0.728. The binding signal with ETV3L amounted to 0.715.
For the sequence AGGCCG, the binding signal was found to be 0.463 in the assay with FLI1; 0.457 with EHF; 0.48 with SPIB; 0.457 in the assay with ETV5; 0.498 in the assay with ELF4; 0.532 with ETV2. This sequence yielded a binding signal with ETV3L of 0.459.
As for GCGCGG, the binding signal stood at 0.732 with FLI1; 0.815 with EHF; 0.8 in the assay with SPIB; 0.753 in the assay with ETV5; 0.828 with ELF4; 0.761 with ETV2. This sequence had a binding signal with ETV3L of 0.817.

(Values after publication PMC7862700.)
